Results from the supplement of paper PMC3334620.
Over roughly 33,000 sequences, “E-score (-0.5 to 0.5)” has its median near -0.016; the highest 2% begin near 0.3. The list shows a part of the results.

Each sequence was assayed against T1, Yer184c (UniProt P39961) (assay: PBM E-score (8-mer binding enrichment) (E-score (-0.5 to 0.5)); higher = stronger / more preferred TF binding). Details: protein concentration: 100 nM; construct: GST-full length.
T1 sequence: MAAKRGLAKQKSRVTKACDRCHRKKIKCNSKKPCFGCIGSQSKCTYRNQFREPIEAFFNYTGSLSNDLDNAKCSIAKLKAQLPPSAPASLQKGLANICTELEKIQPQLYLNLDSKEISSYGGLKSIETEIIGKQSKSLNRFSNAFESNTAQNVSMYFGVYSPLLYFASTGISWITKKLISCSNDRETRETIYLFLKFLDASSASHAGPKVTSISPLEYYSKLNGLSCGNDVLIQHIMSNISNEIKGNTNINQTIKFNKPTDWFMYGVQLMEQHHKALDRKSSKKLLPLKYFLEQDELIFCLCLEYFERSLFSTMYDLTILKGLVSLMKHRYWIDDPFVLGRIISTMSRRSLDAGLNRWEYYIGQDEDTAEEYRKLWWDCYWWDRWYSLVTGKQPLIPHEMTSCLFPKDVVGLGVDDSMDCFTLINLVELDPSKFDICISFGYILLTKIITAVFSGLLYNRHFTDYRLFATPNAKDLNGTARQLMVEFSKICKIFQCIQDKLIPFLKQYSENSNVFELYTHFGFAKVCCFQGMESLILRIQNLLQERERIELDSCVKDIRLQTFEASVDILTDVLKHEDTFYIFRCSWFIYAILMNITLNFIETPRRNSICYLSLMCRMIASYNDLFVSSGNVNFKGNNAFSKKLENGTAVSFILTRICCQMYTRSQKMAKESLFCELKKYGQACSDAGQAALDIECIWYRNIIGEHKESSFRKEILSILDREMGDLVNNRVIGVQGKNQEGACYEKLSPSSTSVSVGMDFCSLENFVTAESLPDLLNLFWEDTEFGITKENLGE
Procedure: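 Universal 'all 10-mer' protein binding microarrays (Agilent AMADID 015681) probed with GST-tagged S. cerevisiae TFs (full-length or DBD) made by in vitro transcription/translation (PURExpress), about 100-200 nM. Bound TF was detected with fluorescent anti-GST. Each ungapped 8-mer (which stands for itself and its reverse complement) is scored by the PBM enrichment score (E-score), a modified Wilcoxon-Mann-Whitney statistic from -0.5 to +0.5, computed with the Universal PBM Analysis Suite. Scale: above 0.35 generally sequence-specific binding.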

Sequence	PBM E-score
AACCTACT	-0.122
AGCTCCAA	-0.0525
CCTGGCAA	-0.158
GGCCTCGA	-0.106
ATTACCGC	0.174
GTCACTAA	-0.0609
AGGCGCGA	0.0224
GCTTCCCC	-0.337
ATCAACCC	0.0588
TCAAGGGA	0.123
AATTCACA	0.166
CAACGTTA	0.0552
GACGGGGC	-0.213
CTACACAC	-0.121
AATAAGCG	-0.146
CCCGTAGC	-0.208
ATAATGGA	0.0508
CATGATTC	-0.0531
ACACAACC	0.00216
GTCAGAAA	0.0635
AATAAAAC	0.099
GGCAAGTA	0.0943
CGTGCAGC	-0.0794
GGGGGCCA	-0.261
ATTACTAA	0.153

Sequence	PBM E-score
ACCCATTC	-0.00104
ATACTATG	0.0693
ACATGCTG	-0.257
GTATTCCA	0.0616
CGAAGTGC	0.112
CCTAGGCG	-0.27
TTACTAAA	0.241
AGACCGGG	0.179
CCCGGGCA	0.217
CTCGAATC	-0.0123
AGCGCTAG	-0.079
CTACCTCA	-0.0606
CATGTCCG	0.0774
ACGCAAGG	0.036
CACACGCG	-0.0224
CCGGACGA	0.323
CCTTCAGA	-0.107
ATAACAGA	0.187
ACCGACTG	0.0253
AACAAAAC	0.176
AGGGTTGA	-0.131
AAATCCTT	-0.0289
CACCGGTC	-0.204
CAGTAGGA	-0.141
TACCGGCA	0.251

Sequence	PBM E-score
ATTACGAC	0.126
GAGTCCCA	-0.0614
CCCGTTCC	-0.0111
AAACTTAA	0.237
AGTTAGGG	-0.132
GAGATTCC	0.0978
AATCTTCC	0.0694
ATGTTAGG	0.0113
AGAAGTCT	-0.146
CTACATTA	-0.08
CACAAACA	0.161
AGAACACC	-0.0272
CCATTAGA	-0.157
ATCTAATG	-0.0371
ACACAAGA	0.0391
ACAAGCAC	-0.0254
GTGTACGA	0.00148
AAAAAGTG	-0.00593
CCGGTCGC	0.221
GCCCAGAC	-0.346
ATAGTGAT	0.0308
CCTGAAAA	0.0179
AATAAGTA	0.051
AGATTTGA	0.0355
GCGCCCTA	-0.135

Sequence	PBM E-score
GGGGTTCA	-0.309
AGTCCAAC	-0.207
ATCTTTCA	0.149
AGTCTTGC	0.00551
TAGAAAGA	-0.2
AATAGGAG	-0.13
GACGCAGC	-0.183
AATTGAAG	0.0581
AGAAGCGC	0.0964
ACTAGGAG	-0.115
ACTCTTAC	0.182
AAGTGTAG	-0.0984
CGGTCCGA	0.335
CGACACTA	-0.0271
AGAACAAC	-0.0558
CATTTATA	0.115
GCCGTGGA	0.0642
AAGCCCTT	-0.199
CATACCCA	-0.077
AGGGGACG	-0.122
CTGGTTCA	-0.00019
CGGTGGAG	-0.0794
CTCAAGCC	-0.0779
GAGAGAGC	-0.193
CGGCCGAA	0.415

Sequence	PBM E-score
AGCCTTAT	-0.149
GGGATCAA	-0.0278
GACGGACA	0.121
AGGCCGTG	0.117
AAGTAATT	0.186
ATTATTTC	0.281
CCTCCCAG	-0.203
CACAACGC	-0.0651
GAATGCGA	0.0377
CTATCCAG	0.0923
AGTAGCTA	0.0971
AGCATACA	0.0536
GGTAGCAC	-0.282
GTTTCGGA	0.304
ATTTCAAA	0.136
AATAGCTG	-0.0614
CACGCGCA	-0.11
GGTGGGAA	-0.13
CCTCCGCC	-0.0659
ATCCTTGA	0.0411
CGAGATGC	0.0108
ACCCTCAA	-0.133
GGGACCCA	-0.117
AATTTCCG	0.406
ATATCAGG	-0.0174

Two entries from above, as labelled records.
ATCCTTGA
  PBM E-score: 0.0411
CGAGATGC
  PBM E-score: 0.0108

The results go on.

Sequence	PBM E-score
CGCCATGA	-0.155
TACTGTAA	0.0672
ATTGTCTC	0.00416
TGAAACCA	0.181
AGTAGGCG	-0.0424
CTATAGTA	0.201
CAACTCGA	0.0102
ACGACTGA	-0.0424
AGTTGATC	-0.0324
ACTGCCAA	0.0188
AGGAGAAT	0.0489
AGAATATC	0.0794
ACGAACGA	0.0481
AAGGTCTC	-0.11
TTCGCAAA	0.228
AACCCCTG	-0.354
ATCTAAAC	-0.00512
GCAACGAA	0.121
AGACGTGA	-0.00097
ATCAATGG	-0.188
CGTCATGC	-0.219
AACTGAGC	-0.0584
CCGATAGG	0.0592
AGACATGG	-0.129
GTTTGTGA	0.0746

Sequence	PBM E-score
CATGCGCC	-0.092
CCCAGCGC	-0.136
AATTGCAA	0.139
ATGACGTC	-0.0365
AATTGATG	0.222
AACAGGTT	-0.096
CAATCAGC	-0.05
AGTTCATG	0.187
CCTCGTTC	-0.224
TATTACGA	0.193
ATATTGAT	0.21
ATCAAACA	0.109
AATCCCAA	-0.161
CACACCTA	-0.119
CGGGGCCA	0.0826
CAATTATG	0.163
ACTGGCAT	-0.229
ACGCATAT	-0.131
AGGTACTG	-0.0384
GGGACCAC	-0.132
ATTAGACA	0.0253
AAATTAAC	0.159

Not a retest: entries from further up.
Sequence	PBM E-score
AATTGCAA	0.139
ATGACGTC	-0.0365
AATTGATG	0.222
AACAGGTT	-0.096
CAATCAGC	-0.05
